The record followed here is US20260008811A1 (ESPIKEM S.R.L., priority 2019, published 2026).

A short description of this data set: general procedure: Fmoc solid-phase peptide synthesis; Rink-Amide AM. Conditions: whole synthesis, analytical HPLC.

With “H3C-CO-DAsn-DVal-DVal-DLys-NH2 (NVVK; N-acetyl, C-amide, D-amino acids)”, the “final HPLC purity” value stood at 98%.
